Reference: article PMC7408493 (Biomolecules, 2020)
Strings that start with PEPTIDE1 are HELM notation: dots part the residues, brackets hold end groups and non-standard residues.

Test: peptide made by a vendor
Settings: whole synthesis

PEPTIDE1{A.V.F.Q.H.N.C.Q.E}$$$$V2.0
purity (crude or final not stated): 98.94%
